In general, inhibition refers to the relative decrease from the control value, in per cent. A lower inhibition goes with little suppression.

The series addresses T1, OATP1B3 (Homo sapiens, UniProt Q9NPD5).
T1 sequence (Q9NPD5 1-702): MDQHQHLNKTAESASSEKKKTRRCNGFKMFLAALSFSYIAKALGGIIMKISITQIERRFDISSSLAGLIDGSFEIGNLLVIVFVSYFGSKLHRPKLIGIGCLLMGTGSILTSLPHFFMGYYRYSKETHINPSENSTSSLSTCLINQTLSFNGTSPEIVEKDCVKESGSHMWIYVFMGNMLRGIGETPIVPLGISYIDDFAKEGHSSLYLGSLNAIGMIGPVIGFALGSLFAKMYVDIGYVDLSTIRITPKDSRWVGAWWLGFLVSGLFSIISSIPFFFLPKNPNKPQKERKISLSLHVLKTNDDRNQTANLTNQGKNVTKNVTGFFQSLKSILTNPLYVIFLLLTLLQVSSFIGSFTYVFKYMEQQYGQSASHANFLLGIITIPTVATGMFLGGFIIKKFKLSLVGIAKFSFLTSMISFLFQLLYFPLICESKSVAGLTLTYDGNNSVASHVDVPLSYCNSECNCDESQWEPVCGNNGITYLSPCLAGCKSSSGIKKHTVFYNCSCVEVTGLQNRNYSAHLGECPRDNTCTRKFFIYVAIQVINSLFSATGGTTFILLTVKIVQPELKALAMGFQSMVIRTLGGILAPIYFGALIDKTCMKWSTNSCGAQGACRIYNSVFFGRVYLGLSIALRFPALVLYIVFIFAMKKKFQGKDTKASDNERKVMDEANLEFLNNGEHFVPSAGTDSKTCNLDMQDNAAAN
The series is described as follows: in vitro.

For the compound `CCC[C@@H]1C[C@@H](C(=O)N[C@@H]([C@H]2O[C@H](SC)[C@H](O)[C@@H](O)[C@H]2O)[C@H](C)Cl)N(C)C1` [A35, clindamycin], the inhibition at 100 μmol/L lay within 64 to 88%.

The record behind these values is article PMC6804443 (Acta Pharmaceutica Sinica. B, 2019).
